Measurements taken from article PMC9491610.
Residue numbers refer to the chain shown, from its start. No constants are given. Whether binding was seen depends on the method and setting. In cells and extracts the contact can be indirect. Some results given as binding are weak or reduced against the parent protein; the word gives no strength.

The chains behind the UniProt entries cited, without tags or fusion partners. Where a name states a change or a piece, a line headed by the entry shows the natural chain unless it says otherwise.
UniProt P09733: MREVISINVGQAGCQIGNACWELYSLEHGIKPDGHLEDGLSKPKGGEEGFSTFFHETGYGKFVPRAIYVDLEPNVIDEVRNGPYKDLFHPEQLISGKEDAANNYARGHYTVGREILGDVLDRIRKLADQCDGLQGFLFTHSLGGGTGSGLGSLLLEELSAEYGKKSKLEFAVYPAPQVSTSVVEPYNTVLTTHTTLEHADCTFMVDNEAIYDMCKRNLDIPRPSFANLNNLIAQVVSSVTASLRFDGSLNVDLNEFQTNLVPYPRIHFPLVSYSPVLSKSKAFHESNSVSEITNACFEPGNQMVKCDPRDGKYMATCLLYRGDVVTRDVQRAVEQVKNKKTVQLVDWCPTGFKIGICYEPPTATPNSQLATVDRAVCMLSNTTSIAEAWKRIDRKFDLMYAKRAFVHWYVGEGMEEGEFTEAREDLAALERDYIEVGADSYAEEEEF

What was measured:
Experiment in all cases: co-IP; Stu2-HA precipitated with anti-HA magnetic beads from 67 mg cryo-milled yeast extract in PEM buffer (80 mM PIPES, 1 mM EGTA, 1 mM MgCl2, pH 6.8); precipitate blotted with anti α-tubulin (anti-Tub1) as surrogate for αβ-tubulin
[1] = biological target: T1, Stu2-K252,469Q-3xHA (S. cerevisiae) (UniProt P46675)
T1 sequence: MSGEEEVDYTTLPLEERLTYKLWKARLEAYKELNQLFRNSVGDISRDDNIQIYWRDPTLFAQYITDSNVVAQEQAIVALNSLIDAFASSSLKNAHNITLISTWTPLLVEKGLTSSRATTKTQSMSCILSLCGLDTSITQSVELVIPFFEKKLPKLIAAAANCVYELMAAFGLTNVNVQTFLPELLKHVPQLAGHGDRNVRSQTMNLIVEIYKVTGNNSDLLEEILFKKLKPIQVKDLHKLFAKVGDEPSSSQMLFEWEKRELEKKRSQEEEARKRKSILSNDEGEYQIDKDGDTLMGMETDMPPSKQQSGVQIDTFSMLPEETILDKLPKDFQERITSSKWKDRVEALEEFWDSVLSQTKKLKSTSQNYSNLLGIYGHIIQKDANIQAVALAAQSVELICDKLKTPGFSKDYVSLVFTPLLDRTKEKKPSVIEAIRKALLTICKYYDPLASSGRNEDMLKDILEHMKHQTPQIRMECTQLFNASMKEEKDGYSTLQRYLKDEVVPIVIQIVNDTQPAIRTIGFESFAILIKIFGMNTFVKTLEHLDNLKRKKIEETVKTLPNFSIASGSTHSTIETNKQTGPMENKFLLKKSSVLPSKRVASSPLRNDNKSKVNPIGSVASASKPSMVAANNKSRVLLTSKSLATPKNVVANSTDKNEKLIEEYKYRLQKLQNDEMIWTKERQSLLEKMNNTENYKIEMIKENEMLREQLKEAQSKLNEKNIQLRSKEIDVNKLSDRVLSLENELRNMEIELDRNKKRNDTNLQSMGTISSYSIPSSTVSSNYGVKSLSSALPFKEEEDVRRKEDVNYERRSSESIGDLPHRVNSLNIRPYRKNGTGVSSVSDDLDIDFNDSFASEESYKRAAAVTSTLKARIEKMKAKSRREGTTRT

[2] = biological target: T2, Stu2-K469Q-3xHA (S. cerevisiae) (UniProt P46675)
T2 sequence: T1 sequence with Q252K

[3] = biological target: T3, Stu2-K252Q-3xHA (S. cerevisiae) (UniProt P46675)
T3 sequence: T1 sequence with Q469K

Measured: binding

αβ-tubulin heterodimer (from UniProt P09733 1-447; P02557 1-457) (complex)
binds: all assays above
